Results are given in words; binding and its absence hold for the method and conditions named. Binding seen in cells or lysates may run through a third protein. These calls come from enrichment with a bait or labelling near it, and not all partners need be listed.
Target: SAMHD1-HA (HA-tagged wild-type SAMHD1) (human) (UniProt Q9Y3Z3)
Experiment: affinity purification with mass spectrometry; HEK293T transfected with SAMHD1-HA vector or empty control vector; lysates 36 h post-transfection; HA-tagged SAMHD1 immunoprecipitated with HA-immobilized agarose beads; eluted with 0.2 M glycine; MS

Sequences of proteins named here, by UniProt entry; tags and fusion partners are left off.
UniProt Q9Y3Z3: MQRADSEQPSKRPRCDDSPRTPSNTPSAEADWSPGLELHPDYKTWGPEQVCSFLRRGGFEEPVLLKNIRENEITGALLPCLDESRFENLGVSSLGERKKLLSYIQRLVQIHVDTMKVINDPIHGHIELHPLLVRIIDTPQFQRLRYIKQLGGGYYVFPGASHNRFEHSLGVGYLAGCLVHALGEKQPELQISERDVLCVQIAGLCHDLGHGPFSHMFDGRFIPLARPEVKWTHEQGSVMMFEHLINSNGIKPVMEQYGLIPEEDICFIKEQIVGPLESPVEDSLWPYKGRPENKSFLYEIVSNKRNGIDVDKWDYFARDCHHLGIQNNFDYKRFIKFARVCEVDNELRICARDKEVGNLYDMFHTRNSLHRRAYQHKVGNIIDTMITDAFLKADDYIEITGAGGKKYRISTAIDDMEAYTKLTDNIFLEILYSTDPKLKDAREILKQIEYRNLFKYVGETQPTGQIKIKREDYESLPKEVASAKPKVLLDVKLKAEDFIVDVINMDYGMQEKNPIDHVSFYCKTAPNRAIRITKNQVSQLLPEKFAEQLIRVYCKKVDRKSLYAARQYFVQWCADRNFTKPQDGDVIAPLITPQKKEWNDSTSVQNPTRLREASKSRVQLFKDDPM
UniProt Q16531: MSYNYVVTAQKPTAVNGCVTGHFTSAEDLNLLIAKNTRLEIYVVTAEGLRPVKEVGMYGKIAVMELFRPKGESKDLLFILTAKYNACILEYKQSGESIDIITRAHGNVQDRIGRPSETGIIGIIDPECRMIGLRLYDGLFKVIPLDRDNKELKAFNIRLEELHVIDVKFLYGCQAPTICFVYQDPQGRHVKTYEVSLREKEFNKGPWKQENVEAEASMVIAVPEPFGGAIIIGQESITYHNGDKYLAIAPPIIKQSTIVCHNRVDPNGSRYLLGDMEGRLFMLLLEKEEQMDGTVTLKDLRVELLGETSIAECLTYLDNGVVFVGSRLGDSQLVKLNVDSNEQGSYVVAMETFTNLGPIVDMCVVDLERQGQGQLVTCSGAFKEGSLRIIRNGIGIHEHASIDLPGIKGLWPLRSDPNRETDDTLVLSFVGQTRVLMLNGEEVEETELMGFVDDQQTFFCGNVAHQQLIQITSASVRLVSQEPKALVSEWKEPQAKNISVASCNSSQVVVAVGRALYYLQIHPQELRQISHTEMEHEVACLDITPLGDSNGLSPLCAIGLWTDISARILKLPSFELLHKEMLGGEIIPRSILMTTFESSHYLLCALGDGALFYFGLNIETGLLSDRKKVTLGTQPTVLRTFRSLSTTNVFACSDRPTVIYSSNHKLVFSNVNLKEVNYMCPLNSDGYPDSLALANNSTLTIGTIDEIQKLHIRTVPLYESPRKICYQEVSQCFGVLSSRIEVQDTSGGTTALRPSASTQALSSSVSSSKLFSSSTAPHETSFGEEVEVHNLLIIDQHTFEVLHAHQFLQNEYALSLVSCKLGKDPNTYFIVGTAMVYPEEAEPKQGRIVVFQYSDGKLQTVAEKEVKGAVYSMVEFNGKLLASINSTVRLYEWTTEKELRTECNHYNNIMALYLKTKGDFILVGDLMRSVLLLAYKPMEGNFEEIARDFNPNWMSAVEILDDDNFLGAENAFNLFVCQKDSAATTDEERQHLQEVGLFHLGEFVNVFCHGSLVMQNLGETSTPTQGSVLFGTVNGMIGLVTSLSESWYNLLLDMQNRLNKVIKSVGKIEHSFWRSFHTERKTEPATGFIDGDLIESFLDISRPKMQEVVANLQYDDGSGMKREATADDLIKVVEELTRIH

## DDB1 (from UniProt Q16531 1-1140)
  binding: binds

From publication PMC12703001
